In PMC10163288:
This is one part of the list.

B1: il10ra_site1_normal_mot_HHH_b1_06837_000000150_0001_20_37_H_._HHH_b2_04232_0001_0000100011_0000001_0_af2pred_dldesign_0_af2pred (protein)
chain: SSSSSSPTEELVALIREAAELLGEGKYEEAKELLDKAKELAEKQNNPLALAALARLEKELSSSSS
B2: il10ra_site1_sap_19_mot_HHH_b2_04681_000000155_0001_43_57_H_._HHH_b1_01263_0001_0000100012_0000001_0_0001 (protein)
chain: SSSSDEAERYVKLALRFARWLAEEGDPEAAKRMIEAAHVIAENNNNPELEELVREAEEELSSSSS
B3: il10ra_site1_sap_12_mot_HHH_b2_03831_000000013_0001_40_54_H_._HHH_b2_02451_af2_0001_0000100005_0000001_0_0001 (protein)
chain: SSSSDEEVVRLLQEAFEAILHGDPEKAEEIAEEALRLAEELGDPRLERIARDLLQAIRARGSSSS
B4: il10ra_site1_sap_24_mot_HHH_b1_03900_000000129_0001_1_16_H_._HHH_b2_05734_af2_0001_0000100005_0000001_0_0001 (protein)
chain: SSSSSSEEEFEEIVERLEELGNPHLAELVRAALRLYRQVGSEFFHLAAELALELAEERGSSSSSS
B5: il10ra_site1_sap_15_mot_HHH_b2_00943_af2_000000149_0001_1_17_H_._HHH_b1_04057_0001_0000100001_0000002_0_0001 (protein)
chain: SSSREEVEEIVEEAKKLAKEQNDEELERYVEIARHFVEAALKQGNEELAEMIARMLLKAVRDASS
B6: il10ra_site1_sap_20_mot_ems_3hM_235_000000244_0001_46_64_H_._HHH_b1_03746_0001_0000200014_0000001_0_0001 (protein)
chain: SSSSTDEELLEAALRLAEQALEWGDPEAARFLVEAAIMLAREINDEELLEELERLLEELESSSSS
B7: il10ra_site1_normal_mot_HHH_b2_08050_000000089_0001_21_37_H_._HHH_b2_00643_0001_0000200012_0000001_0 (protein)
chain: SSSSSYAEQVRRFVRALIEFSEKTGDERALEAAKSILRLAIESLGDPELEELLHELEELLSSSSS
B8: il10ra_site1_sap_16_mot_HHH_b2_02736_000000092_0001_22_38_H_._HHH_b1_04467_0001_0000300024_0000002_0_0001 (protein)
chain: SSSSSDEEEIKELSEEAKELLEKGNPEEALRVLLEALRLALRLGDEELLQELWELIKRVASSSSS
B9: il10ra_site1_sap_24_mot_HHH_b1_07219_af2_000000236_0001_1_17_H_._HHH_b1_02526_af2_0001_0000300018_0000001_0_0001 (protein)
chain: SSSSSSDAERYIRLTLRFAKRLQDPEARKFMLEAALEMAERLGDEELREEIEELIERLSSSSSSS
B10: il10ra_site1_sap_16_mot_6792f2186577ebd01aa11eb855ed7b57_0001_af2_000000149_0001_1_16_H_._HHH_b2_07280_0001_0000200007_0000001_0_0001_af2pred_0001 (protein)
chain: SSSSDVEEREKELEEELERLLEEGDDEEFLRVLREAVRLAQENGNEELLRRLMELAEEAKSSSSS
B11: il10ra_site1_normal_mot_HHH_b2_00622_af2_000000153_0001_40_57_H_._HHH_b2_06400_0001_0000200017_0000001_0_af2pred_0001 (protein)
chain: SSSSDDLQRLLEWLIKAARQLYENGNPEAAKLALRDAAAAARALGDEELLEEIERLLEEISSSSS
B12: il10ra_site1_normal_mot_HHH_b1_06994_000000193_0001_40_55_H_._HHH_b1_00400_0001_0000300011_0000001_0 (protein)
chain: SSSDKQERELVRTALRLVEQAVKAGDEETAEFLVISMEILARELNDPRLEELVEEAEELINSSSS
B13: il10ra_site1_sap_13_mot_HHH_b2_05540_000000178_0001_1_18_H_._HHH_b1_08523_0001_0000100004_0000001_0_0001 (protein)
chain: SSSSSSRSAETQLRAVEHVLKLGDEEYARLAARFLLAIARALNDPEYSEIAEEILEELNSSSSSS
B14: il10ra_site1_normal_mot_HHH_b1_02997_000000220_0001_39_52_H_._HHH_b1_01312_0001_0000400040_0000001_0_af2pred_0001 (protein)
chain: SSSSDLLEEVIELSREAAKLLAEGNPEEARKVVEEALELAEEAGDEEAELIIRFLEEQITSSSSS
B15: il10ra_site1_normal_mot_HHH_b1_00999_000000080_0001_41_55_H_._HHH_b2_02582_af2_0001_0000100004_0000001_1 (protein)
chain: SSSSSSDEFTRLAAEAVRLAFRNGDDETLREIWELVKRWGEEGDPRIEEALEELLEELSSSSSSS
B16: il10ra_site1_sap_21_mot_HHH_b2_00612_000000251_0001_1_14_H_._HHH_b1_05509_0001_0000700038_0000001_0_0001_af2pred_0001 (protein)
chain: SSSSSRAEYLLRAAELAIRYALEEGDEELAKAVFRVMKLALEKLGDEEALEELREFFEEYSSSSS
B17: il10ra_site1_normal_mot_HHH_b2_06857_af2_000000179_0001_42_54_H_._HHH_b1_03840_af2_0001_0000100002_0000003_0 (protein)
chain: SSSSDEIAQEIFELIREAAELHSNGNPEEAREVLEEAKELAEEINNHLLRFQIEFLLRLGSSSSS
B18: il10ra_site1_normal_mot_HHH_b1_05088_af2_000000046_0001_20_36_H_._HHH_b1_01942_af2_0001_0000200004_0000002_0_af2pred_0001 (protein)
chain: SSSSSDEEELEEEVERLLEEAKHVSVHERIELLREALELAKENNDPELLRLVREVVRKLVSSSSS
B19: il10ra_site1_sap_21_mot_HHH_b1_01874_000000035_0001_1_20_H_._HHH_b1_07467_0001_0000100001_0000003_0_0001 (protein)
chain: SSSSDELSRRIMELIEKAMELDLEGNPEEARELLEEAEKLAEEKGDPLMEVQLRWLLERINSSSS
B20: il10ra_site1_normal_mot_HHH_b2_07731_000000003_0001_42_56_H_._HHH_b2_03755_0001_0000300014_0000001_1_af2pred_0001 (protein)
chain: SSSSSSSDVEEEVRELLEEAEEDPDRAAELLRRAAELAAELNDPELLRLVVEVVQRITSSSSSSS
B21: il10ra_site1_normal_mot_HHH_b1_06914_000000280_0001_1_18_H_._HHH_b2_08355_af2_0001_0000500007_0000001_0_af2pred_0001 (protein)
chain: SSSSSSEEEKSEELREKLEEAVENRDAHLVYRLLKEVLEFVFETNDEELLEVVRRAAHLLSSSSS
B22: il10ra_site1_sap_19_mot_HHH_b2_04680_000000215_0001_1_16_H_._HHH_b1_04594_af2_0001_0001300013_0000001_0_0001 (protein)
chain: SSSSSEEELEELVEELEKLVERNDLERFAELAQEALRLAFQLGDKEVLRRLWELVERIAGSSSSS
B23: il10ra_site1_normal_mot_HHH_b2_00984_000000042_0001_1_20_H_._HHH_b2_05309_0001_0000100012_0000001_0 (protein)
chain: SSSSSEEEEQIEELLEEVKELLRQGDPREALRVLQEAAQLAMRANNAELLQEIWELIRKVASSSS
B24: il10ra_site1_sap_16_mot_0aa80e4383ff73b96d266796d974ca63_0001_000000257_0001_1_11_H_._HHH_b1_04144_af2_0001_0000300005_0000001_0_0001 (protein)
chain: SSSSQEAYEAARRIIEEFIEAVRRGDDERARELLEELRELAEELNNPILRRLVEVLEKALRSSSS
B25: il10ra_site1_sap_17_mot_HHH_b2_05984_000000071_0001_38_52_H_._HHH_b2_07300_af2_0001_0000300006_0000001_0_0001_af2pred_0001 (protein)
chain: SSSSSASERVIRLIREAFKLLHEGNPEEAEELIEEAKKIAEENNNRALRRAIEAAERALRSSSSS
B26: il10ra_site1_sap_14_mot_HHH_b1_02492_000000051_0001_1_21_H_._HHH_b2_05983_0001_0000300015_0000001_0_0001_af2pred_dldesign_0_af2pred (protein)
chain: SSSSDPEAEIKRLYERALALLEAGDEERALELLRELTRLAWETKDPEAIKKALELADRLLESSSS
B27: il10ra_site1_sap_19_mot_HHH_b1_03314_af2_000000278_0001_42_55_H_._HHH_b1_01737_af2_0001_0000400013_0000001_0_0001_af2pred_0001 (protein)
chain: SSSSSEDEERIRELLEEAERALEEGDEEEARKLIAEAYLIAAKNENEEIWEQVLEVFQRLNSSSS
B28: il10ra_site1_normal_mot_e1dd4851c59bc1cdde016f988f6856bd_0001_1_000000200_0001_16_31_H_._HEEHE_2606_0001_0000400023_0000001_1_af2pred_0001 (protein)
chain: TEAEEFVREVEAMAQVANVPSVEVEVHDGRVEVTVEGNDRAAREFELMFRFLALVRGIDVEVEVE
B29: il10ra_site1_normal_mot_HHH_b2_06857_af2_000000179_0001_42_54_H_._HHH_b2_01688_af2_0001_0000100001_0000001_1 (protein)
chain: SSSSSELVQEVYRLLREAAELHSEGNEEEAEEVLEEARRLAEEANNVLLAFQVRFLLRLIGSSSS
B30: il10ra_site1_sap_23_mot_HHH_b1_05052_000000015_0001_1_19_H_._HHH_b2_05916_af2_0001_0000100003_0000001_0_0001 (protein)
chain: SSSSSDKEELAEALHRMIEQALEWGDPESAEMLILALEMLAKELNDPELEELVKELEELLSSSSS
B31: il10ra_site1_normal_mot_39a7b8d0c4c3fc04bafbda6ce6101d3a_0001_1_af2_000000014_0001_34_48_H_._190733a505cf72e9f5bb281964386224_0001_1_af2_0001_0000700024_0000001 … (protein)
chain: DEVEEEIKRVAEEQGDETVAHAVKAIEENLERGLIPPELALLQLLFLAQQLGDPEVIRELRELRK
B32: il10ra_site1_sap_16_mot_HHH_b1_06048_000000117_0001_42_56_H_._HHH_b1_06438_0001_0000600027_0000002_1_0001 (protein)
chain: SSSSNEEMARELVRAALRIARQVPDKETLKHALIAAQLLAEETNDPELEELAKEIEELEESSSSS
B33: il10ra_site1_normal_mot_HHH_b2_02337_000000026_0001_38_52_H_._HHH_b1_06658_0001_0000100013_0000001_0 (protein)
chain: SSSSSDREEEIEELLRQAERLAEEGNPEEATRLLAEAVRLIFELGDEELLRELWELVRRLSSSSS
B34: il10ra_site1_sap_22_mot_HHH_b2_06812_af2_000000299_0001_41_56_H_._44e4ab65238a46b1c89eac5211a0a491_0001_1_0001_0000400022_0000001_0_0001_af2pred_0001 (protein)
chain: SSSSDVEEEIEELLREAKKLAENGNPEEASYLITRAFALATQNRNEELRREVQELAIEETESSSS
B35: il10ra_site1_normal_mot_HHH_b2_01310_000000089_0001_41_55_H_._ems_p1-15H-GBL-16H-GABBL-16H_0175_0001_0001_0002_af2_0001_0000400025_0000001_0_af2pred_0001 (protein)
chain: SSSSSSVIHLAREALKFALRKGDQEGFREILEIFRAFIRGEISEEEASERLEEILRELRSSSSSS
B36: il10ra_site1_sap_23_mot_HHH_b1_02809_af2_000000277_0001_40_57_H_._HHH_b1_02459_0001_0000100004_0000001_0_0001 (protein)
chain: SSSSSSDERKEVYELIREAMEIDDEEERRQVLEEALRLAEELGDRVLLINARYALERTSSSSSSS
B37: il10ra_site1_normal_mot_HHH_b2_00277_af2_000000172_0001_1_17_H_._HHH_b2_01341_0001_0000400021_0000002_0_af2pred_0001 (protein)
chain: SSSSDVEEEVRRLLEEAEEARERGNPEEAHELLHEAAALAARARDLELAYLVVEVYAKINSSSSS

biological target: il10ra, Q13651; test: yeast display titration

Apparent Kd, inactive:
B1 no binding seen
B2 no binding seen
B3 no binding seen
B4 no binding seen
B5 no binding seen
B6 no binding seen
B7 no binding seen
B8 no binding seen
B9 no binding seen
B10 no binding seen
B11 no binding seen
B12 no binding seen
B13 no binding seen
B14 no binding seen
B15 no binding seen
B16 no binding seen
B17 no binding seen
B18 no binding seen
B19 no binding seen
B20 no binding seen
B21 no binding seen
B22 no binding seen
B23 no binding seen
B24 no binding seen
B25 no binding seen
B26 no binding seen
B27 no binding seen
B28 no binding seen
B29 no binding seen
B30 no binding seen
B31 no binding seen
B32 no binding seen
B33 no binding seen
B34 no binding seen
B35 no binding seen
B36 no binding seen
B37 no binding seen

Reprinted at random: 2 entries already listed, in no set order.
Apparent Kd, inactive:
B30 no binding seen
B12 no binding seen
